Measurements reported in PubChem BioAssay AID1224829 (NIAID, 2016).
Assay: 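Follow-up of TLR4-NF-kappaB regulators using six separate siRNAs for each gene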 (follow-up of hits). System: mouse RAW264.7 G9 macrophage reporter cells. Reagents: single siRNA against mouse genes, 100 nM. Timing: 2 days of siRNA knock-down, then 40 min of LPS before fixing. Treatment: LPS (Salmonella minnesota R595) at 10 ng/ml. Detection: 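Imaging of GFP-p65 after 40 min of LPS; nuclear over perinuclear ring intensity ratio, scaled to plate median and non-targeting control wells, given as z-score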. Reading the numbers: p65 translocation z-score and gene median z-score, per vendor: higher = more nuclear NF-kappaB p65 after LPS. Call rule: 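An siRNA is called active when the mean z-score of its two replicates is above 2 or below -2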. Calls: active = changed p65 translocation (either direction); inactive = no clear change.
Here is one part, drawn at random, of about 3,800 reagents tested. 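Calls cover raised and lowered translocation; gene median uses one vendor's three siRNAs; qiagen siRNAs acted more weakly than ambion siRNAs.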 Reagents against one gene are numbered here.

| gene | reagent no. | siRNA vendor or control pool | p65 translocation z-score, replicate mean | p65 translocation z-score, replicate 1 | p65 translocation z-score, replicate 2 | gene median z-score, per vendor | Call |
| --- | --- | --- | --- | --- | --- | --- | --- |
| Cpeb1 | 1 | ambion single siRNA | -2.98 | -3.92 | -2.03 | -2.09 | active |
| Cpeb1 | 2 | ambion single siRNA | -1.48 | -0.674 | -2.28 | -2.09 | inactive |
| Cpeb1 | 3 | ambion single siRNA | -1.43 | -0.708 | -2.15 | -2.09 | inactive |
| Cpeb1 | 4 | qiagen single siRNA | -0.997 | -1.33 | -0.659 | -0.997 | inactive |
| Cpeb1 | 5 | qiagen single siRNA | 0.0653 | 0.779 | -0.648 | -0.997 | inactive |
| Cpeb1 | 6 | qiagen single siRNA | -4.89 | -3.75 | -6.04 | -0.997 | active |
| Reps2 | 1 | ambion single siRNA | 1.6 | 2.4 | 0.793 | -1.89 | inactive |
| Reps2 | 2 | ambion single siRNA | -1.89 | -2.56 | -1.23 | -1.89 | inactive |
| Reps2 | 3 | ambion single siRNA | -3.51 | -2.84 | -4.18 | -1.89 | active |
| Reps2 | 4 | qiagen single siRNA | 3.71 | 3.21 | 4.2 | 0.837 | active |
| Reps2 | 5 | qiagen single siRNA | 0.837 | 0.171 | 1.5 | 0.837 | inactive |
| Reps2 | 6 | qiagen single siRNA | -2.7 | -0.497 | -4.91 | 0.837 | active |
| Hexb | 1 | ambion single siRNA | 0.0628 | -0.684 | 0.81 | 0.81 | inactive |
| Hexb | 2 | ambion single siRNA | 2.81 | 2.54 | 3.09 | 0.81 | active |
| Hexb | 3 | ambion single siRNA | -2.59 | -2.59 | – | 0.81 | active |
| Hexb | 4 | qiagen single siRNA | 0.562 | 0.169 | 0.956 | 0.166 | inactive |
| Hexb | 5 | qiagen single siRNA | -0.876 | -0.574 | -1.18 | 0.166 | inactive |
| Hexb | 6 | qiagen single siRNA | 0.401 | 0.639 | 0.163 | 0.166 | inactive |
| Lrrc19 | 1 | ambion single siRNA | -0.991 | -0.718 | -1.26 | -2.14 | inactive |
| Lrrc19 | 2 | ambion single siRNA | -2.18 | -2.2 | -2.16 | -2.14 | active |
| Lrrc19 | 3 | ambion single siRNA | -3.3 | -2.12 | -4.48 | -2.14 | active |
| Abcb10 | 1 | ambion single siRNA | 0.46 | 0.536 | 0.384 | -2.64 | inactive |
| Abcb10 | 2 | ambion single siRNA | -3.84 | -5.65 | -2.03 | -2.64 | active |
| Abcb10 | 3 | ambion single siRNA | -3.92 | -4.58 | -3.26 | -2.64 | active |
| Abcb10 | 4 | qiagen single siRNA | -0.114 | -0.191 | -0.0363 | -0.114 | inactive |
| Abcb10 | 5 | qiagen single siRNA | 2.12 | 1.85 | 2.4 | -0.114 | active |
| Abcb10 | 6 | qiagen single siRNA | -3.44 | -3.27 | -3.6 | -0.114 | active |

5 entries from above, set out differently:
gene	reagent no.	siRNA vendor or control pool	p65 translocation z-score, replicate mean	p65 translocation z-score, replicate 1	p65 translocation z-score, replicate 2	gene median z-score, per vendor	Call
Hexb	6	qiagen single siRNA	0.401	0.639	0.163	0.166	inactive
Lrrc19	1	ambion single siRNA	-0.991	-0.718	-1.26	-2.14	inactive
Lrrc19	2	ambion single siRNA	-2.18	-2.2	-2.16	-2.14	active
Lrrc19	3	ambion single siRNA	-3.3	-2.12	-4.48	-2.14	active
Abcb10	1	ambion single siRNA	0.46	0.536	0.384	-2.64	inactive

Next records:
| gene | reagent no. | siRNA vendor or control pool | p65 translocation z-score, replicate mean | p65 translocation z-score, replicate 1 | p65 translocation z-score, replicate 2 | gene median z-score, per vendor | Call |
| --- | --- | --- | --- | --- | --- | --- | --- |
| Nfatc3 | 1 | ambion single siRNA | 1.5 | 1.29 | 1.72 | -2.17 | inactive |
| Nfatc3 | 2 | ambion single siRNA | -2.36 | -2.55 | -2.17 | -2.17 | active |
| Nfatc3 | 3 | ambion single siRNA | -5.1 | -5.1 | – | -2.17 | active |
| Nfatc3 | 4 | qiagen single siRNA | 1.78 | 0.607 | 2.96 | 0.038 | inactive |
| Nfatc3 | 5 | qiagen single siRNA | -0.976 | -2.02 | 0.0671 | 0.038 | inactive |
| Nfatc3 | 6 | qiagen single siRNA | -2.03 | 0.00893 | -4.07 | 0.038 | active |
| Ca9 | 1 | ambion single siRNA | 0.36 | -0.152 | 0.873 | 0.36 | inactive |
| Ca9 | 2 | ambion single siRNA | 4.3 | 4.3 | – | 0.36 | active |
| Ca9 | 3 | ambion single siRNA | -1.89 | -1.89 | – | 0.36 | inactive |
| Ca9 | 4 | qiagen single siRNA | 1.13 | 0.632 | 1.63 | -2.33 | inactive |
| Ca9 | 5 | qiagen single siRNA | -2.33 | -1.75 | -2.92 | -2.33 | active |
| Ca9 | 6 | qiagen single siRNA | -4.81 | -3.32 | -6.31 | -2.33 | active |
| Cimip2b | 1 | ambion single siRNA | -1.37 | -1.74 | -0.995 | -1.65 | inactive |
| Cimip2b | 2 | ambion single siRNA | -1.02 | -0.476 | -1.56 | -1.65 | inactive |
| Cimip2b | 3 | ambion single siRNA | -5.37 | -4.63 | -6.12 | -1.65 | active |
| Cimip2b | 4 | qiagen single siRNA | 1.07 | 0.968 | 1.18 | -0.147 | inactive |
| Cimip2b | 5 | qiagen single siRNA | -4.49 | -5.15 | -3.84 | -0.147 | active |
| Cimip2b | 6 | qiagen single siRNA | -0.147 | -0.42 | 0.126 | -0.147 | inactive |
| R3hdm2 | 1 | ambion single siRNA | 4.62 | 5.41 | 3.83 | -0.482 | active |
| R3hdm2 | 2 | ambion single siRNA | -6.25 | -6.68 | -5.81 | -0.482 | active |
| R3hdm2 | 3 | ambion single siRNA | -0.482 | 0.203 | -1.17 | -0.482 | inactive |
| R3hdm2 | 4 | qiagen single siRNA | -1.96 | -1.64 | -2.29 | -2.4 | inactive |
| R3hdm2 | 5 | qiagen single siRNA | -5.32 | -5.32 | – | -2.4 | active |
| R3hdm2 | 6 | qiagen single siRNA | -2.52 | -2.52 | – | -2.4 | active |
